In the supplement of paper PMC11732987, “Enantioselective OTUD7B fragment discovery through chemoproteomics screening and high-throughput optimisation” (Communications Chemistry, 2025):
Some of the results follow. The data scatter; read single values as rough.

Protein sequences, listed by entry. Tags and fused reporters are not part of them. Lines headed by an entry give the natural chain unless they say otherwise; changes in a name come on top. Residues count along the entry.
UniProt O14562, 2-51: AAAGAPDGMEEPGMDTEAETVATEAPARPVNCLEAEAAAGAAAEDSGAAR
UniProt Q9UNY4: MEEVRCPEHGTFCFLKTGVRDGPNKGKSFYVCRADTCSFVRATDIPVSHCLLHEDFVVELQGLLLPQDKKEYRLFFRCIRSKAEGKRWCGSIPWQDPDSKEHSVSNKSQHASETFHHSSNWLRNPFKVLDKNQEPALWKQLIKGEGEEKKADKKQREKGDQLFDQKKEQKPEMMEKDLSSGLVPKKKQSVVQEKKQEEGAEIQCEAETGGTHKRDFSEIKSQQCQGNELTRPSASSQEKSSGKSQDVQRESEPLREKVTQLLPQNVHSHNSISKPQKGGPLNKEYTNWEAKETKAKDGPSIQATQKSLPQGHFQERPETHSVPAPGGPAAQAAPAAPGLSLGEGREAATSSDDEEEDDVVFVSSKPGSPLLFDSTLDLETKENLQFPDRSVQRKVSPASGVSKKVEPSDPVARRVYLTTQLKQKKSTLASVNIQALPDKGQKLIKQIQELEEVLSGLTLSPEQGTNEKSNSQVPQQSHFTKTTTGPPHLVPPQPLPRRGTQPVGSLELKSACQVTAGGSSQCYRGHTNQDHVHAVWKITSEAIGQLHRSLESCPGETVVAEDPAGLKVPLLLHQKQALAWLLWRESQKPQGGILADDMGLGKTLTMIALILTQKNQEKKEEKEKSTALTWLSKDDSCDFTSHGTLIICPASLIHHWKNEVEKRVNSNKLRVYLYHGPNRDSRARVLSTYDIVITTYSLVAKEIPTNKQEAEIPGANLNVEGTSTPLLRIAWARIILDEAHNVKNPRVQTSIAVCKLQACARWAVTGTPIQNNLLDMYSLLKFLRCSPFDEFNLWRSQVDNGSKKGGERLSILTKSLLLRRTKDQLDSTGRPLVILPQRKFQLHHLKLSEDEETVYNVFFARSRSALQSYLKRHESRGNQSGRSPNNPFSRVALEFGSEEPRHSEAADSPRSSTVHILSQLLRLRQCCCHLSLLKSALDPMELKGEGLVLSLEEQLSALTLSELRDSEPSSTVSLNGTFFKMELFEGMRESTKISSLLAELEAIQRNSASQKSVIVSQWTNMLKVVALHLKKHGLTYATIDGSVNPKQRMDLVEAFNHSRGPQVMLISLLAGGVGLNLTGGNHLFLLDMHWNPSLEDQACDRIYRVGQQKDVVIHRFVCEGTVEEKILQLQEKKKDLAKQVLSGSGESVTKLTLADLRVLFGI
UniProt Q7Z4L5: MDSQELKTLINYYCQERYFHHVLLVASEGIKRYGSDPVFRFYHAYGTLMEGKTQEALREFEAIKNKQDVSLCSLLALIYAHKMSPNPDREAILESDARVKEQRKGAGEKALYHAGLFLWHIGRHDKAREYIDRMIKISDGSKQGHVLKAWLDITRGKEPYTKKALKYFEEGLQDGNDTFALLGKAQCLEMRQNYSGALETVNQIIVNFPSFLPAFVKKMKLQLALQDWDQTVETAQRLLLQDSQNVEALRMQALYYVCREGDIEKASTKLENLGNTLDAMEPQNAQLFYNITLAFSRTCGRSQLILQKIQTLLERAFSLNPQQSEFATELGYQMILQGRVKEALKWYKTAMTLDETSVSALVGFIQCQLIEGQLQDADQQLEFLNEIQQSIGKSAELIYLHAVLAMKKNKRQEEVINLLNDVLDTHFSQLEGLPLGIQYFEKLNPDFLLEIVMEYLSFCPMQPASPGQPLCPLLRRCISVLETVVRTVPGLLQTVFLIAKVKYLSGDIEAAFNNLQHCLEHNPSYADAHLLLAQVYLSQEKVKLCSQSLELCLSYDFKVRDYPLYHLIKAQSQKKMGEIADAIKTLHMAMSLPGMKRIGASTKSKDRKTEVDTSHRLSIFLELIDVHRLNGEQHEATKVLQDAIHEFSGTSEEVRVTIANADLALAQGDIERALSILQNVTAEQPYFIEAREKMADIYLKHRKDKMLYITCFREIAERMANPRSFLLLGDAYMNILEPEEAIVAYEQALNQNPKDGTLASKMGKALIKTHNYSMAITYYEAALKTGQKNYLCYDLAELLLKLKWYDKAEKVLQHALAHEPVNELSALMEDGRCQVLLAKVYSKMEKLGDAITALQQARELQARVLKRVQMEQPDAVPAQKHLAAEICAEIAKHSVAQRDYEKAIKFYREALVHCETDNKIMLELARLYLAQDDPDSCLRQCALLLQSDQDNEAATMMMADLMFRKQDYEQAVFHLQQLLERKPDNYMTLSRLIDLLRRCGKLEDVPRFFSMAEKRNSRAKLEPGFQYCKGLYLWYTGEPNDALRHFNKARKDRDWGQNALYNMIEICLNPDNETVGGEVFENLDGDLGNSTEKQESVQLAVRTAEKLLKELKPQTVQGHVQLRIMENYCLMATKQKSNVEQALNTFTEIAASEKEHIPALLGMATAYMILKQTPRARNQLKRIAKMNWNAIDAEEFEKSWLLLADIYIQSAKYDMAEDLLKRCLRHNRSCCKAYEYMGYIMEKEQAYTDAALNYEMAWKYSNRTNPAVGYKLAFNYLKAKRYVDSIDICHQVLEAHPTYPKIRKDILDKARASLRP
UniProt Q9NRR5, whole entry, looked up: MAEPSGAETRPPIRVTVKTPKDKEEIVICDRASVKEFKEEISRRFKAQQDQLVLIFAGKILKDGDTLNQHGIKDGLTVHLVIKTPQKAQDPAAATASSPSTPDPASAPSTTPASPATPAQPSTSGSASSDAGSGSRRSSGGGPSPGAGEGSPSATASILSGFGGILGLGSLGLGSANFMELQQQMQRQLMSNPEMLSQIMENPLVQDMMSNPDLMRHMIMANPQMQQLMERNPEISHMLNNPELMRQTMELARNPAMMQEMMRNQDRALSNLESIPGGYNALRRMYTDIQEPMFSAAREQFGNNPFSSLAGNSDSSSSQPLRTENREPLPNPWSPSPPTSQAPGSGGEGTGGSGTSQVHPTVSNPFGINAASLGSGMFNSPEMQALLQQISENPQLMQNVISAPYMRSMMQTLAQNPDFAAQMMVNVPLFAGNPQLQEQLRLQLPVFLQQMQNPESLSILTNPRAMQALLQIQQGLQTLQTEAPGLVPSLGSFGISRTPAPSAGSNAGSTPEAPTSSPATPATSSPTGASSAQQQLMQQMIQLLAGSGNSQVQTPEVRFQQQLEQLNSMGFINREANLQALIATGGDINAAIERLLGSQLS
UniProt Q9NUP7: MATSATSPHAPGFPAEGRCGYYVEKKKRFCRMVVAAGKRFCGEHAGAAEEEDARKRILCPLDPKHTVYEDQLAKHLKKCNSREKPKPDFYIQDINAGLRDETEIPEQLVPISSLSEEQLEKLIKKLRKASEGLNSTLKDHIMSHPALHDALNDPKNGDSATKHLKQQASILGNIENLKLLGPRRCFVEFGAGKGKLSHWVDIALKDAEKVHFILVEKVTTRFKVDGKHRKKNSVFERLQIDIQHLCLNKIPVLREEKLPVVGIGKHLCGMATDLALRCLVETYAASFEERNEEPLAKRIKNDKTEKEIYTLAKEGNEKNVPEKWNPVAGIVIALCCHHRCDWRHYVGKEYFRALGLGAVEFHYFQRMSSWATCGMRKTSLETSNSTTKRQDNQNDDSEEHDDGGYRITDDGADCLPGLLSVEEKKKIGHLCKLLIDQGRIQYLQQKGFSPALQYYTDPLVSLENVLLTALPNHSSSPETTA
UniProt Q96RT7, whole entry, looked up: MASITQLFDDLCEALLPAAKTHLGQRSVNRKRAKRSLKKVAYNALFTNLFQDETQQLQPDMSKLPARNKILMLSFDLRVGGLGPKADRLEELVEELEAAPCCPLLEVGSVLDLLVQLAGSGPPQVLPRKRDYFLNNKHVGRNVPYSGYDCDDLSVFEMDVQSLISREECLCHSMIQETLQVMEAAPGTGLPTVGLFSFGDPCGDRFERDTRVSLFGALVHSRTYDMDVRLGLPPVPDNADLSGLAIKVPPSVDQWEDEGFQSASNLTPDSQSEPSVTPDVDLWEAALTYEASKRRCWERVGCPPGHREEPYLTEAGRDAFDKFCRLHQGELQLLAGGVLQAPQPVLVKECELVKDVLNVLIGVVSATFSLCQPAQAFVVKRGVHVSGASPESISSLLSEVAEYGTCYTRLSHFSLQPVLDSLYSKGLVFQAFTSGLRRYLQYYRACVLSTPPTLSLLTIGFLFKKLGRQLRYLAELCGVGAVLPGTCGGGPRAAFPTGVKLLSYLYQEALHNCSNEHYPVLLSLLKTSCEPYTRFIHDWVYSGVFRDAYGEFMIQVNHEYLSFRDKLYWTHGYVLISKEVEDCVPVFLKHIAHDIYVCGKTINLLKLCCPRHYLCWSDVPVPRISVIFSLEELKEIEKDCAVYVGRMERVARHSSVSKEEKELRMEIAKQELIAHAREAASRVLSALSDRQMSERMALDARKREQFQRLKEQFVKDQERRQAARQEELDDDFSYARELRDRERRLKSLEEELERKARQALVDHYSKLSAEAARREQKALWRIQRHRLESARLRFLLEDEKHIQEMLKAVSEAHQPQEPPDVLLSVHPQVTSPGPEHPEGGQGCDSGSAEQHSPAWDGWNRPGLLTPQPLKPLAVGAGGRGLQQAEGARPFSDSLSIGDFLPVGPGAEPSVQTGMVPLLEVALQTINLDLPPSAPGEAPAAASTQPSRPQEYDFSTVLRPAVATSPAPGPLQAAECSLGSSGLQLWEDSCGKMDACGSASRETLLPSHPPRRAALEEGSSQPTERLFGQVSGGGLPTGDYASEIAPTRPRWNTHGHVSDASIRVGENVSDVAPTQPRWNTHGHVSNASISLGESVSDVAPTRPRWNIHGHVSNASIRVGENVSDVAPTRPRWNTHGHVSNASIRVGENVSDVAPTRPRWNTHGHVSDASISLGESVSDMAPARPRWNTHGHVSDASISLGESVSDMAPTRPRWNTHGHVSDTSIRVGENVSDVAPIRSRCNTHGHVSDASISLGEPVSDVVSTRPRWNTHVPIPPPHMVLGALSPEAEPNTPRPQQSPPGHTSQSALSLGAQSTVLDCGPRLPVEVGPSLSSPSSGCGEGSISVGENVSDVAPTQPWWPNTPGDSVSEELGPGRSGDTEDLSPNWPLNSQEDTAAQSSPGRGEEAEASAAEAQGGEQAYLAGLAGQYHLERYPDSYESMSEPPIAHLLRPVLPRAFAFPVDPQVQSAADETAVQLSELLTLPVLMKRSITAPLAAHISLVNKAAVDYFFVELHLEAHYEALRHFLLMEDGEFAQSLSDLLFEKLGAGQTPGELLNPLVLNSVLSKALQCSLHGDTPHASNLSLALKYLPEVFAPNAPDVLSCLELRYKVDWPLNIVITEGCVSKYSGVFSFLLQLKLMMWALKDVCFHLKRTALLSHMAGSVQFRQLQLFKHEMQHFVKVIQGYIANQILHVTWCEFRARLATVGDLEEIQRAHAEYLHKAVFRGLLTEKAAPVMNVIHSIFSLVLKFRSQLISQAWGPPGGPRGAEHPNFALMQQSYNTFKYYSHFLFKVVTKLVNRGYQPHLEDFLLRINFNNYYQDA
UniProt Q9NPG3, whole entry, looked up: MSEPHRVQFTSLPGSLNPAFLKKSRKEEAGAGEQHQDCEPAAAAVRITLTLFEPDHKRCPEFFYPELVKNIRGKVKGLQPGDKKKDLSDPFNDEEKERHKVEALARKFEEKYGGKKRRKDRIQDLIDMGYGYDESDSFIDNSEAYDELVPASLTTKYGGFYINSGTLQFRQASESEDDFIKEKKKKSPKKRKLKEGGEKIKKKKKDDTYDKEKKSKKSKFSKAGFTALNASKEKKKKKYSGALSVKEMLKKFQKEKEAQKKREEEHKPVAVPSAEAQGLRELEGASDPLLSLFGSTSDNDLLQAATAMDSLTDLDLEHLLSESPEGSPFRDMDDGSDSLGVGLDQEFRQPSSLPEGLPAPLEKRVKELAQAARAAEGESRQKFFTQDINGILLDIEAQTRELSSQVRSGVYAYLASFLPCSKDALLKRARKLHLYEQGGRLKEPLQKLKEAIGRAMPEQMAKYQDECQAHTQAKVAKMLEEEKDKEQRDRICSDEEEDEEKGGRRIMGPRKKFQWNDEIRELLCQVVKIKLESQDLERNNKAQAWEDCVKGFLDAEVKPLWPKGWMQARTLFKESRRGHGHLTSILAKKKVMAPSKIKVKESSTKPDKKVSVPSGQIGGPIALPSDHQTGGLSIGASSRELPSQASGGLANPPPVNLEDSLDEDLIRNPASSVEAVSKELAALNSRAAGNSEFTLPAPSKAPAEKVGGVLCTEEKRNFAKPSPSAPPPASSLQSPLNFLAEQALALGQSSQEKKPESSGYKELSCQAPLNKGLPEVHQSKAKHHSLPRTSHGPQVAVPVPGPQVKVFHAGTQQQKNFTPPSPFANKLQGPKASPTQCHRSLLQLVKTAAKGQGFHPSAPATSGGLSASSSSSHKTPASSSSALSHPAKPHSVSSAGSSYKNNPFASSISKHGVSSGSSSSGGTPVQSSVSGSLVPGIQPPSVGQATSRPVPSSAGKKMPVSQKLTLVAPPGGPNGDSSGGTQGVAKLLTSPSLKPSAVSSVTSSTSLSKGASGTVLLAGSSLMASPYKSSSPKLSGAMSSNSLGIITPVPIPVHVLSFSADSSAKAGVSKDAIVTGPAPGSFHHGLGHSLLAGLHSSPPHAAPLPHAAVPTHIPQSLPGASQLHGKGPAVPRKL
UniProt Q9NPG3, 26-46: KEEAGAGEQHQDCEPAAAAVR

Each target was assayed with ClCC(=O)N[C@H]1CCCc2ccccc12 (assay: log2 mean competition ratio of IA-DTB cysteine labelling (DMSO/compound) (log2 ratio); higher = stronger cysteine engagement by compound). Conditions: 200 µM; treatment time: 4 h; cell line lysate: HEK293T.
Experimental: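 IA-DTB competitive cysteine chemoproteomics in HEK293T RIPA lysate. Lysates were treated with compound 29 or 30 at 50 or 200 µM for 4 h, then IA-DTB (500 µM, 1 h), trypsin-digested, NeutrAvidin-enriched and analysed by diaPASEF. Competition ratio = intensity DMSO / intensity compound (n=4 treated, n=64 DMSO); binding: mean log2 CR ≥ 1 and p ≤ 0.05 plus QC filters. Target is the cysteine site.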

Target	log2 mean competition ratio
TUFM C127 (UniProt P49411)	-0.293
TTC39C C87 (UniProt Q8N584)	-0.307
TXLNG C480 (UniProt Q9NUQ3)	-0.165
TRRAP C3347 (UniProt Q9Y4A5)	0.153
TTC37 C1422 (UniProt Q6PGP7)	-0.0411
UAP1L1 C231 (UniProt Q3KQV9)	-0.416
TRMT10A C37 (UniProt Q8TBZ6)	-0.0549
TUT7 C911 (UniProt Q5VYS8)	-0.35
TRMT1L C730 (UniProt Q7Z2T5)	0.0595
TSEN54 C277 (UniProt Q7Z6J9)	0.275
UBFD1 C33 (UniProt O14562)	-0.356
UBR1 C477 (UniProt Q8IWV7)	-0.343
TTF2 C754 (UniProt Q9UNY4)	0.0909
UBE2M C47	-0.207
UBR1 C251 (UniProt Q8IWV7)	0.0768
TTC21B C914 (UniProt Q7Z4L5)	-0.261
U2AF2 C464	-0.208
TTC27 C299 (UniProt Q6P3X3)	-0.21
UBOX5 C99 (UniProt O94941)	0.126

Target	log2 mean competition ratio
UBR2 C1360 (UniProt Q8IWV8)	-0.124
UBR3 C288 (UniProt Q6ZT12)	0.0252
UBIAD1 C31 (UniProt Q9Y5Z9)	-0.0585
TSN C225 (UniProt Q15631)	-0.000873
TUBB8B C12 (UniProt A6NNZ2)	-0.0883
TRMT2A C538 (UniProt Q8IZ69)	-0.168
TXNIP C49 (UniProt Q9H3M7)	-0.0179
TSPY9;TSPY2;TSPY3;TSPY4;TSPY8;TSPY10;TSPY1 C283;(C277);(C277);(C283);(C277);(C277);(C277)	0.107
TRUB2 C252 (UniProt O95900)	-0.11
UBQLN4 C29 (UniProt Q9NRR5)	0.305
TSR3 C208 (UniProt Q9UJK0)	-0.0624
TRMT13 C59 (UniProt Q9NUP7)	0.248
TSFM C240 (UniProt P43897)	-0.19
TTLL12 C370	-0.144
TUBGCP6 C995 (UniProt Q96RT7)	0.0873
UBE2I C43	0.0825
UBN1 C765 (UniProt Q9NPG3)	0.0114
UBR4 C2234 (UniProt Q5T4S7)	-0.141
UBN1 C38 (UniProt Q9NPG3)	-0.359

Some of the entries above in another layout:
Target | log2 mean competition ratio
UBIAD1 C31 (UniProt Q9Y5Z9) | -0.0585
TSN C225 (UniProt Q15631) | -0.000873
